Measured values: patent US20230190871A1, “METHODS AND COMPOSITIONS FOR TREATMENT OF VIRAL INFECTIONS” (priority 2020, published 2023)
At least one structure is not confirmed: it was looked up by name or label, or the drawing left a doubt.

Test system: SARS CoV-2 (USA_WA1/2020)
Type: cell-based
Settings: infected cells treated with remdesivir control; 1 day post infection

CCC(CC)COC(=O)[C@H](C)N[P@](=O)(OC[C@H]1O[C@@](C#N)(c2ccc3c(N)ncnn23)[C@H](O)[C@@H]1O)Oc1ccccc1 [remdesivir] was tested, and the viral inhibition was “viral inhibition”.
